Measurements: paper PMC12255069 (Journal of Biological Engineering, 2025)
Results are given in words; binding and its absence hold for the method and conditions named. Some binding calls cover weakened binding; strength is not graded here. Where a sequence is shown, tags or fusion partners need not be part of it.

Molecular target: T1, ICOS-L Y8 displayed on yeast (UniProt O75144)
T1 sequence: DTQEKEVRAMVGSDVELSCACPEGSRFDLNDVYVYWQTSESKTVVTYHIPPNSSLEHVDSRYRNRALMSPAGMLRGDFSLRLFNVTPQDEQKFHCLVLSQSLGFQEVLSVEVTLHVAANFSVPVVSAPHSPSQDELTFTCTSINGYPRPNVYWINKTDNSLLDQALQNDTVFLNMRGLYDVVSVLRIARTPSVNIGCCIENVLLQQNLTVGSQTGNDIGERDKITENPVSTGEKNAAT
Test: flow cytometry on cells; yeast cells displaying ICOS-L variants labelled with hICOS-Fc-Alexa488 and anti-FLAG-iFluor647 for 1 h at room temperature in PBSB (0.1% BSA in PBS); only the binder purified

binding: binds
B1: hICOS-Fc-Alexa488 (Fc fusion, UniProt Q9Y6W8 21-140)
chain: EINGSANYEMFIFHNGGVQILCKYPDIVQQFKMQLLKGGQILCDLTKTKGSGNTVSIKSLKFCHSQLSNNSVSFFLYNLDHSHANYYFCNLSIFDPPPFKVTLTGGYLHIYESQLCCQLK
modifications: Alexa Fluor 488 label
